Test results: article doi:10.1101/2020.09.09.289967
Results are given in words; binding and its absence hold for the method and conditions named. A result given as binding can be weak or reduced; the word gives no strength. For some assays here: Binding seen in cells or lysates may run through a third protein. For some assays here: Sequences can lack the tags named with a protein.

Key:
[1] = biological target: Arabidopsis thaliana purple acid phosphatase 2 (BiFC fusion) (Arabidopsis thaliana); assay: split reporter
[2] = biological target: Arabidopsis thaliana purple acid phosphatase 2 (Arabidopsis thaliana); assay: two-hybrid

B1: ferredoxin/thioredoxin reductase subunit A2 (BiFC fusion) (protein, UniProt Q8LBP6 72-184)
chain: CDIAVKSAASVDADADLSSSTSLETEEDEKAKEKIGARVRVTVPLKVYHVVRVPEVELMGMEGFIKDYVVLWKGKKISANLPFKVQFVKEIEGRGPVKFFTHLKEDEFELIDP
[1]
  binding: binds

B2: FTRB (BiFC fusion) (protein, UniProt Q9SJ89 32-146)
chain: AKTEPSEKSVEIMRKFSEQYARRSGTYFCVDKGVTSVVIKGLAEHKDSYGAPLCPCRHYDDKAAEVGQGFWNCPCVPMRERKECHCMLFLTPDNDFAGKDQTITSDEIKETTANM
[1]
  binding: binds

B3: ferredoxin/thioredoxin reductase subunit A2 (protein, UniProt Q8LBP6 1-184)
chain: MTNSYALSPAIIAAVRPPASQDYLVAASLSGRKSINSSSSSIFVPISLSTSYGRSKCAFSISRKNPKSTIRCDIAVKSAASVDADADLSSSTSLETEEDEKAKEKIGARVRVTVPLKVYHVVRVPEVELMGMEGFIKDYVVLWKGKKISANLPFKVQFVKEIEGRGPVKFFTHLKEDEFELIDP
[2]
  binding: binds

B4: FTRB (protein, UniProt Q9SJ89 1-146)
chain: MNLQAVSCSFGFLSSPLGVTPRTSFRRFVIRAKTEPSEKSVEIMRKFSEQYARRSGTYFCVDKGVTSVVIKGLAEHKDSYGAPLCPCRHYDDKAAEVGQGFWNCPCVPMRERKECHCMLFLTPDNDFAGKDQTITSDEIKETTANM
[2]
  binding: binds

B5: FTRA1 (protein, UniProt Q9FHL4 1-182)
chain: MSSQIALSPAIAAAIRRPSSHDCLSASATTATATPMALKSCIVAPLSLFTSQSQIKHSSSRKTSRTTIRCDVAIKSADSINADANPSSSPSSEEEIEAEAKAKIGSRVRVTAPLKVYHVNRVPEVDLEGMEGKLKDYVAVWKGKRISANLPYKIEFFKEIEGRGLVKFVSHLKEDEFEFIDQ
[2]
  binding: no binding
